Laboratory results: PubChem BioAssay AID493246 (Drosophila RNAi Screening Center, 2011)

Purpose: 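Identify essential fly genes by loss of cell viability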 (primary screen)
System: Drosophila Kc and S2R+ cells
Reagent: long dsRNA against Drosophila genes
Measurement: 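Cell number per well after knock-down, printed as raw plate values; calls were based on per-plate z-scores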
Reading the numbers: Kc cell number and S2R+ cell number: higher = more cells remaining
Hit rule: 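Active when the per-plate z-score of cell number is 3 or more in the direction of fewer cells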
In all, the deposit lists about 21,000 reagents; this is an unselected part of those with a known target gene and a result. In the full data, 429 (2%) were called active. 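Values are raw and not normalised between plates; calls rest on per-plate z-scores that were not deposited.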 Names joined by + are all predicted targets of the reagent. Not stated in the record: the amount of reagent, the time to read-out.

no.	target gene	amplicon	Kc cell number, rep 1	Kc cell number, rep 2	S2R+ cell number, rep 1	S2R+ cell number, rep 2	Outcome
1	CG31515	DRSC13610	1.39e6	1.61e6	1.06e6	1.09e6	inactive
2	CG14565	DRSC11726	1.33e6	1.33e6	1.28e6	1.33e6	inactive
3	Lcp65Ab2 + Lcp65Ab1	DRSC10340	1.49e6	1.30e6	1.11e6	1.19e6	inactive
4	Lcp65Ab2 + Lcp65Ab1	DRSC10343	1.32e6	1.40e6	1.08e6	1.19e6	inactive
5	SPR (Sex peptide receptor)	DRSC17390	1.56e6	1.70e6	1.07e6	1.11e6	inactive
6	SPR (Sex peptide receptor)	DRSC17886	1.67e6	1.62e6	1.04e6	1.20e6	inactive
7	SPR (Sex peptide receptor)	DRSC18114	1.58e6	1.61e6	1.02e6	1.10e6	inactive
8	SP (Sex Peptide)	DRSC09664	1.28e6	1.26e6	1.27e6	1.30e6	inactive
9	Rsph1 (Radial spoke head protein 1)	DRSC02864	1.74e6	1.81e6	1.37e6	1.54e6	inactive
10	Ns3 (Nucleostemin 3)	DRSC18607	5.35e5		8.52e5		inactive
11	CG10340	DRSC14232	1.44e6	1.58e6	1.12e6	1.23e6	inactive
12	CG30349	DRSC06421	1.64e6	1.58e6	1.32e6	1.42e6	inactive
13	CG30349	DRSC06839	1.45e6	1.46e6	1.27e6	1.42e6	inactive

2 entries from above, reduced to “S2R+ cell number, rep 1”.
Ns3 (Nucleostemin 3) [DRSC18607]: 8.52e5
CG10340 [DRSC14232]: 1.12e6

More records follow:
no.	target gene	amplicon	Kc cell number, rep 1	Kc cell number, rep 2	S2R+ cell number, rep 1	S2R+ cell number, rep 2	Outcome
14	Ent3 (Equilibrative nucleoside transporter 3)	DRSC09822	1.24e6	1.45e6	1.24e6	8.80e5	inactive
15	CG7341	DRSC10818	1.46e6	1.49e6	1.20e6	1.35e6	inactive
16	CG6865	DRSC10732	1.64e6	1.79e6	1.35e6	1.46e6	inactive
17	CG31077	DRSC13805	1.59e6	1.68e6	9.06e5	9.14e5	inactive
18	Rsph4a (Radial spoke head protein 4a)	DRSC04338	1.65e6	1.68e6	1.15e6	1.28e6	inactive
19	thoc7	DRSC08512	1.31e6	1.36e6	1.23e6	1.29e6	inactive
20	grsm (granny smith)	DRSC14165	1.50e6	1.13e6	7.08e5	7.07e5	active
21	grsm (granny smith)	DRSC14843	1.61e6	1.46e6	1.09e6	1.18e6	inactive
22	eIF2Bepsilon (eukaryotic translation initiation factor 2B subunit epsilon)	DRSC18769	5.18e5		7.74e5		inactive
23	Det (Deterin)	DRSC14489	1.27e6	1.37e6	1.10e6	1.24e6	inactive
24	CG30429	DRSC04040	1.46e6	1.49e6	9.67e5	1.03e6	inactive
